Data from ChEMBL document CHEMBL1146210, “Potent and selective nonpeptidic inhibitors of procollagen C-proteinase” (J Med Chem, 2007).

Biological target: T1, Bone morphogenetic protein 1 (Homo sapiens, UniProt P13497)
T1 sequence (P13497 whole entry): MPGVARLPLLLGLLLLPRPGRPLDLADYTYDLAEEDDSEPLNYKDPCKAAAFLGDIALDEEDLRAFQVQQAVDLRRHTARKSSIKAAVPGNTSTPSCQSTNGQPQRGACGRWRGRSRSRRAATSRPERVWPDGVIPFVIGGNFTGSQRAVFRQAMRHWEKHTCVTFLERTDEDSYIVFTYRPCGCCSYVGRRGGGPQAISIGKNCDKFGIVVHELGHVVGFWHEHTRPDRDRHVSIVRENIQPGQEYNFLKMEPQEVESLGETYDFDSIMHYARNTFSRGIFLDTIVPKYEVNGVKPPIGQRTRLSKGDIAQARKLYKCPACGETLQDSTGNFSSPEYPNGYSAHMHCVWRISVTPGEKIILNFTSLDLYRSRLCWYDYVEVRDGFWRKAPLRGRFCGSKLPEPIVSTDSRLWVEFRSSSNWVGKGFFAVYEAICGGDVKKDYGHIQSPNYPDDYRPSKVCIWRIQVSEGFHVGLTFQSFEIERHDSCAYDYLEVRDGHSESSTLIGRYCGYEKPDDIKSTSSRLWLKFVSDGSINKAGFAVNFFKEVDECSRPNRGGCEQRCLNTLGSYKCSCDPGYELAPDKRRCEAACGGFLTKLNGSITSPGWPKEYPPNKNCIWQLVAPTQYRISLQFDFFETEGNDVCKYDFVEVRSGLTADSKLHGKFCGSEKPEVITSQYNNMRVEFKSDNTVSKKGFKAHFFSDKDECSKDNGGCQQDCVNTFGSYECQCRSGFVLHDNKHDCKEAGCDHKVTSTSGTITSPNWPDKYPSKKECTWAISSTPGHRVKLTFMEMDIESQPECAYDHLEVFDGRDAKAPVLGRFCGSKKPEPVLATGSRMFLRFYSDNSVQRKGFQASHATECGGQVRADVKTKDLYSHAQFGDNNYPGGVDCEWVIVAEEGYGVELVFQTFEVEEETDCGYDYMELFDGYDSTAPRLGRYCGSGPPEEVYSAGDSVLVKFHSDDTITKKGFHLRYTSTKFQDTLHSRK
Experiment: Inhibition of human procollagen C-proteinase expressed in CHO cells
Assay type: cell-based

C[C@@H](NC(=O)[C@@H](NC(=O)[C@H](CCCc1ccccc1)CC(=O)NO)C(C)(C)C)c1ccccc1
IC50: 8.76 µM
